Source: patent US20240093200A1
These are yes or no findings as the source states them, for the method shown. In cells and extracts the contact can be indirect. Some entries that bind do so weakly or less than the wild type.

Chains of the proteins cited; added tags and fusions are not shown.
UniProt Q15910: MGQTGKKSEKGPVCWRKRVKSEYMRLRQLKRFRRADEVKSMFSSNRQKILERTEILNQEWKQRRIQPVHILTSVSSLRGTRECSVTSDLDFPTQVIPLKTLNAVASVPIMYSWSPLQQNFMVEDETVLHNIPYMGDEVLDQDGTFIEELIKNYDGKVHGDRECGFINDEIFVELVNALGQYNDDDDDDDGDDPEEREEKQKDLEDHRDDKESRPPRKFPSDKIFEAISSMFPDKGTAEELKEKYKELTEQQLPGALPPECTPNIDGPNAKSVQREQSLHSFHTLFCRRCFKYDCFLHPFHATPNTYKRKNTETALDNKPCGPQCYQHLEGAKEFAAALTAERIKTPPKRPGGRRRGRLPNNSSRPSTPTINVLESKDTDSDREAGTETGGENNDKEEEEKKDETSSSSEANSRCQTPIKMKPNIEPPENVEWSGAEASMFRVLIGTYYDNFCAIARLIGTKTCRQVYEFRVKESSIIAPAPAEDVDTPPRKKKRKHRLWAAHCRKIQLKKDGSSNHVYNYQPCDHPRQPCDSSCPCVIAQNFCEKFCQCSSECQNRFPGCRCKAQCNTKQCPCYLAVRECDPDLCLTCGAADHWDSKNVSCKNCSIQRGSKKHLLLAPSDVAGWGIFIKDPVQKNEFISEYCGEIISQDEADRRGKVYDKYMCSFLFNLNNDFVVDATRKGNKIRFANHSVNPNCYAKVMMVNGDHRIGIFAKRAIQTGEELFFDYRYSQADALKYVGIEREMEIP
UniProt P25490: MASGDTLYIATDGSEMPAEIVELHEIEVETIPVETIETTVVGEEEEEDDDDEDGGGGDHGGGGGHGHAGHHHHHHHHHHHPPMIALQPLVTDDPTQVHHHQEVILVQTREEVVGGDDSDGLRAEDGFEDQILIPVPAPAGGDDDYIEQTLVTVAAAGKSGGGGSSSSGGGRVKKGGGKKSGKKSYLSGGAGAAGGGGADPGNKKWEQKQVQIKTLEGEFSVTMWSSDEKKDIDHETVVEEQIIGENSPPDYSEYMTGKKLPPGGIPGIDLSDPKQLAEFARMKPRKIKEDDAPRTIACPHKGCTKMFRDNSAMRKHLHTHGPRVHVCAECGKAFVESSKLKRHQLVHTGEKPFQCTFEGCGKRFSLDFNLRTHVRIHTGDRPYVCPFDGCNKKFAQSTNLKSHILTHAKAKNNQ

Key:
[1] = biological target: Enhancer of zeste homolog 2 (Ezh2) (human) (UniProt Q15910); experiment: co-immunoprecipitation (FIG. 15)
[2] = biological target: Enhancer of zeste homolog 2 (Ezh2) (human) (UniProt Q15910); experiment: co-immunoprecipitation from extract of T cells under exhaustion conditions, western blot
[3] = biological target: Enhancer of zeste homolog 2 (Ezh2) (human) (UniProt Q15910); experiment: co-immunoprecipitation: IP with Ezh2 antibody, blot probed with YY1 antibody

binding [1]: binds
binding [2]: binds
binding [3]: binds
Substance: Yin Yang 1 (YY1) (from UniProt P25490 1-414)
